Assay results from PubChem BioAssay AID2685 (National Center for Advancing Translational Sciences (NCATS), 2010).
Out of some 320,000 compounds screened, about 2,100 (0.66%) were called active. The shares of active, inactive and inconclusive entries below differ from those in the screen. Calls follow the shape of the dose curve; as a rule, active = well fitted inhibition curve with a large enough effect in the signal ratio, with a control signal flat (not every such curve was filed as active); inconclusive = small, poorly fitted or top-dose-only effect, or effect the other way, or a change in a side signal; inactive = flat fitted curve, though single readings scatter; the % refers to the signal ratio. Where the call is inconclusive, the potency comes from a doubtful curve fit.

Test: qHTS Assay for Lipid Storage Modulators in Drosophila S3 Cells
Conditions: BODIPY lipid droplet fluorescence, 18-24 h, cells fed with added oleic acid; lipid storage change, negative = inhibition: at 46.1 µM (top of the series) unless noted
Procedure, shortened: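 Drosophila S3 cells got compounds at several concentrations plus oleic acid (400 uM solution). Laser-scanning cytometry with 488 nm excitation read lipid droplets at 500-530 nm and cells at 575-640 nm. Percent activity was relative to 20 uM Triacsin C.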
% is scaled to controls: 0 for no effect and ±100 for the full control effect; potency is read from the fitted curve at half-maximal effect.

Row | Structure (SMILES) | lipid storage change, negative = inhibition | Potency | outcome
1 | O=C(c1ccc(NS(=O)(=O)c2ccc(Cl)cc2)cc1)N1CCOCC1 | inconclusive: 2.81% | – | –
2 | O=Cc1ccc(-c2ccccc2OC(F)(F)F)o1 | inconclusive: 0.478% | – | –
3 | COc1ccc(C2CC(c3ccc4ccccc4c3)=NN2C(=O)COC(=O)C2CCC(=O)N2)cc1 (configuration not stated) | – | inconclusive: 6.51 µM [activator, single point] | –
4 | CN1CCN(CCCC(=O)c2ccc(F)cc2)CC1 | – | inconclusive: 0.58 µM [falling, single point] | –
5 | COc1c(O)ccc(/C=C(\C#N)c2nc3ccccc3[nH]2)c1[N+](=O)[O-] | inconclusive: -12.5% | – | –
6 | O=C(Cn1cnc2cc([N+](=O)[O-])ccc2c1=O)Nc1ccccc1Cl | inconclusive: 6.58% | – | –
7 | CN1CCN(c2nc(-c3cccnc3)nc3scc(-c4ccccc4)c23)CC1 | – | – | inactive [at 46.1 µM]
8 | COc1cccc(N2C(=O)C3CCCN3C2c2ccc(Cl)cc2)c1 (configuration not stated) | inconclusive: -33.3% | – | –
9 | COCC(=O)Nc1ccc(C(N)=O)cc1 | inconclusive: -11.4% | – | –
10 | CC(NC(=O)c1ccc(Br)o1)c1ccccc1 (configuration not stated) | – | inconclusive: 6.51 µM [cytotoxic, single point] | –
11 | O=C(N/N=C/c1cc(Br)c(Br)o1)C(O)c1ccccc1 (configuration not stated) | – | inconclusive: 18.4 µM [activator, single point] | –
12 | Clc1ccc(OCc2nc(-c3ccncc3)no2)c(Cl)c1 | – | – | inactive [at 46.1 µM]
13 | CC(=O)NS(=O)(=O)c1ccc(NC(=O)/C=C/c2ccccc2Cl)cc1 | – | inconclusive: 16.4 µM [falling, single point] | –
14 | S=C(c1ccc(-c2ccccc2Cl)o1)N1CCCCC1 | – | inconclusive: 20.6 µM [falling, single point] | –
15 | CCNS(=O)(=O)c1ccc(CCC(=O)N2CCC(C)CC2)cc1 | inconclusive: 105% | – | –
16 | CCN(CC)CCCNC(=O)C1c2ccccc2Oc2ccccc21 | inconclusive: 119% | – | –
17 | Cc1ccc(OCC(=O)NNC(=O)CCC(=O)NCc2ccccc2)cc1 | inconclusive: -74.2% | – | –
18 | O=C(COC(=O)/C=C/c1ccco1)Nc1ccccc1 | inconclusive: 49.4% | – | –
19 | CCN(C(=O)Cn1nc(C(=O)O)c2ccccc2c1=O)C1CCCCC1 | inconclusive: -19.4% | – | –
20 | COC(=O)c1cccnc1N1CCN(c2ccccc2F)CC1 | – | inconclusive: 0.326 µM [rising, full curve] | –
21 | C/C(=N\OC(=O)c1ccc(Cl)c(Cl)c1)c1sc(C)nc1C | inconclusive: -18.2% | – | –
22 | c1ccc(C2=Nc3c(ccc4ccccc34)C(c3ccncc3)=NN2)cc1 | inconclusive: -22.5% | – | –
23 | O=C(NCCCn1ccnc1)c1ccc(Cl)c(S(=O)(=O)N2CCOCC2)c1 | inconclusive: 40.6% | – | –
24 | Cc1cc(C(C)(C)C)c(O)c(C(C)(C)C)c1 | inconclusive: -38% | – | –
25 | O=[N+]([O-])c1ncn(Cc2c(Cl)cccc2Cl)n1 | – | inconclusive: 29.1 µM [falling, single point] | –
26 | Cn1nnc2cc(NC(=O)Nc3cccc(Cl)c3)ccc21 | inconclusive: -15.9% | – | –

A few values from the list.
Cc1cc(C(C)(C)C)c(O)c(C(C)(C)C)c1 | lipid storage change, negative = inhibition: inconclusive: -38%
CCN(CC)CCCNC(=O)C1c2ccccc2Oc2ccccc21 | lipid storage change, negative = inhibition: inconclusive: 119%
O=C(Cn1cnc2cc([N+](=O)[O-])ccc2c1=O)Nc1ccccc1Cl | lipid storage change, negative = inhibition: inconclusive: 6.58%
COc1cccc(N2C(=O)C3CCCN3C2c2ccc(Cl)cc2)c1 (configuration not stated) | lipid storage change, negative = inhibition: inconclusive: -33.3%
COC(=O)c1cccnc1N1CCN(c2ccccc2F)CC1 | Potency: inconclusive: 0.326 µM [rising, full curve]
O=C(NCCCn1ccnc1)c1ccc(Cl)c(S(=O)(=O)N2CCOCC2)c1 | lipid storage change, negative = inhibition: inconclusive: 40.6%

Remaining list, next part

Row | Structure (SMILES) | lipid storage change, negative = inhibition | Potency | outcome
27 | CCN(CC)S(=O)(=O)c1ccc(N(C)Cc2cccc(OC)c2OC)nc1 | inconclusive: 12.8% | – | –
28 | Cc1ccc(CCNC(=O)C2CCC(CNc3c(N4CCC(C)CC4)c(=O)c3=O)CC2)cc1 (configuration not stated) | inconclusive: 0.146% | – | –
29 | CC(OC(=O)c1cnc(Cl)c(Cl)c1)C(=O)NCc1ccccc1 (configuration not stated) | – | inconclusive: 9.2 µM [activator, partial curve, poor fit] | –
30 | C/C(NC(=O)c1ccccc1F)=C1\C(=O)C[C@@H]2[C@H]1C2(C)C | inconclusive: 51.3% | – | –
31 | COc1ccc(S(=O)(=O)N2CCCCCC2)cc1C(=O)N(C)Cc1ccc(OC)c(OC)c1OC | inconclusive | – | –
32 | O=C(O)Cn1c(=O)cnc2ccccc21 | inconclusive: -5.97% | – | –
33 | CCCCN1C(=O)CC(Nc2ccc(CC)cc2)C1=O (configuration not stated) | inconclusive: 34.9% | – | –
34 | COc1cccc(CNC(=O)COC(=O)c2cccc(S(=O)(=O)N3CCCC3)c2)c1 | inconclusive: -23.7% | – | –
35 | CCCCC(=O)Oc1c(S(=O)(=O)c2ccc(C)cc2)c(C)nn1C(C)(C)C | – | inconclusive: 29.1 µM [falling, single point] | –
36 | COc1ccc(OC)c2sc(NC(=O)CCSc3ccccc3)nc12 | inconclusive: -29.7% | – | –
37 | COc1ccccc1/C=C/C(=O)N1CCN(S(=O)(=O)c2cc(C)ccc2C)CC1 | – | inconclusive: 0.103 µM [activator, full curve, poor fit] | –
38 | COc1cccc(OCCCOc2ccccc2C(C)C)c1 | inconclusive: -37.8% | – | –
39 | Nc1ccc(C(=O)N/N=C/c2cn(Cc3cccc(F)c3)c3ccccc23)cc1 | inconclusive: -100% | – | –
40 | Cc1ccc(C(=O)NCCOc2cccc3cccnc23)cc1Cl | inconclusive: 21.1% [at 9.22 µM] | – | –
41 | CCOC(=O)C1CCCN(C(=O)c2cc(-c3ccccc3)on2)C1 (configuration not stated) | – | inconclusive: 20.6 µM [falling, single point] | –
42 | CCc1ccc2c(c1)C(=O)c1ccccc1C2=O | – | inconclusive: 3.66 µM [activator, single point] | –
43 | CCOc1ccc(OCC)c(NC(=O)CN(C)S(=O)(=O)c2cnc[nH]2)c1 | – | inconclusive: 6.51 µM [rising, single point] | –
44 | CCOC(=O)Cc1csc(NC(=O)/C=C/c2cccc(Br)c2)n1 | inconclusive: 15.4% | – | –
45 | O=C(Nc1cccc(Cl)c1)c1cc(S(=O)(=O)NCCc2ccc(Cl)cc2)ccc1F | – | inconclusive: 20.6 µM [falling, single point] | –
46 | CCOc1ccc(NC(=S)N(CCc2c(C)[nH]c3ccccc23)Cc2ccco2)cc1 | – | inconclusive: 1.84 µM [activator, full curve] | –
47 | CCOC(=O)C(NCc1ccccc1OC)(NC(C)=O)C(F)(F)F (configuration not stated) | – | inconclusive: 29.1 µM [falling, single point] | –
48 | O=[N+]([O-])c1ccc2[nH]c3c(c2c1)CCCC3O (configuration not stated) | inconclusive: 22.9% | – | –
49 | CS(=O)(=O)c1ccc(Cl)c(NC(=O)Cc2c(F)cccc2Cl)c1 | inconclusive: -56.3% [cytotoxic] [at 0.369 µM] | – | –
50 | CCOC(=O)c1[nH]c(C)c(/C(O)=C2\C(=O)C(=O)N(CCN(C)C)C2c2cccc(OC)c2OC)c1C (configuration not stated) | inconclusive: 40.1% | – | –
51 | CN(C)S(=O)(=O)c1cccc(NC(=O)CCCc2nc3ccccc3c(=O)[nH]2)c1 | – | inconclusive: 0.164 µM [falling, full curve, poor fit] | –
52 | O=C1c2cccc3c([N+](=O)[O-])ccc(c23)C(=O)N1CC1CCCO1 (configuration not stated) | – | inconclusive: 29.1 µM [falling, single point] | –

Row | Structure (SMILES) | lipid storage change, negative = inhibition | Potency | outcome
53 | COc1ccc(/C=N\NC(=O)c2cc(OCC(F)(F)F)ccc2OCC(F)(F)F)cc1 | inconclusive: -0.182% | – | –
54 | COc1ccc(N2C(=O)CC(Nc3ccc(F)cc3)C2=O)c([N+](=O)[O-])c1 (configuration not stated) | inconclusive: 8.09% | – | –
55 | COc1ccccc1CNCc1cc(Br)ccc1OC | inconclusive: 0.282% | – | –
56 | CN/C(=C\[N+](=O)[O-])NCCSCc1ccc(CN(C)C)o1 | inconclusive: -11.5% | – | –
57 | Cc1ccc(S(=O)(=O)NC(C)C(=O)N2CCOCCOCCOCCOCC2)cc1 (configuration not stated) | – | inconclusive: 29.1 µM [activator, single point] | –
58 | Nc1cccc(O)c1 | – | inconclusive: 23.1 µM [activator, single point] | –
59 | CCc1cccc(C)c1NC(=O)CSc1nc(-c2ccccc2F)nc2nc[nH]c12 | inconclusive: 23.3% | – | –
60 | CC(OC(=O)c1cccs1)C(=O)NCc1ccc2c(c1)OCO2 (configuration not stated) | inconclusive: 20.7% | – | –
61 | COc1ccccc1CNC(=O)C1CC2Cn3c(nc4ccccc43)C2N1C (configuration not stated) | inconclusive: 9.73% | – | –
62 | CCOC(=O)c1cc(C(=O)n2cc(Cl)cn2)nn1C | inconclusive: 5.25% | – | –
63 | NC(=S)NNC(=O)Nc1cccc(Cl)c1 | inconclusive: 79.1% | – | –
64 | CCN(CC)CCOC(=O)c1ccc(NC(=O)COc2cc(=O)n(CC)c3ccccc23)cc1 | inconclusive: 50.4% | – | –
65 | COc1ccc(C2=NN(C(=O)c3ccccc3)C(c3cccc([N+](=O)[O-])c3)C2)cc1 (configuration not stated) | – | inconclusive: 23.1 µM [activator, single point] | –
66 | CCOC(=O)C1=C(N)OC(CCl)=C(C#N)C1c1ccsc1 (configuration not stated) | inconclusive: -46.3% | – | –
67 | CSc1ccc(S(=O)(=O)NC2CCCCC2)cc1 | – | active: 23.1 µM | –
68 | COc1ccccc1-c1cc(C(=O)NCc2ccc(F)cc2)no1 | – | inconclusive: 2.91 µM [activator, partial curve] | –
69 | CC(C)Oc1ccc(C(=O)NC2(C(F)(F)F)NC(=O)N(CCCc3ccccc3)C2=O)cc1 (configuration not stated) | inconclusive: 27.5% | – | –
70 | O=C(COC(=O)COc1ccccc1)Nc1cccc([N+](=O)[O-])c1 | inconclusive: -0.642% | – | –
71 | NC(=O)CC(NC(=O)Cc1ccc(Br)cc1)c1ccc(NCCN2CCCC2)c([N+](=O)[O-])c1 (configuration not stated) | – | inconclusive: 29.1 µM [falling, single point] | –
72 | O=C(CSc1nncn1-c1ccccc1)Nc1c(F)cccc1F | – | inconclusive: 6.51 µM [activator, single point] | –
73 | O=C(NCC1CCCO1)c1cnc(Cl)c(Cl)c1 (configuration not stated) | – | inconclusive: 0.0731 µM [falling, full curve, poor fit] | –
74 | O=c1c2ccccc2ncn1CCOCCOc1cccc(Br)c1 | – | inconclusive: 7.31 µM [activator, partial curve] | –
75 | CCC(C)[C@H](N)c1nnc(SCC(=O)Nc2cccc(Cl)c2)o1 (some centres not stated) | inconclusive: -1.09% | – | –
76 | O=C(COC(=O)CCc1ccc(S(=O)(=O)N2CCCCC2)cc1)Nc1ccc2c(c1)OCO2 | inconclusive: -11.7% | – | –
77 | Cc1ccc(C)c(OCC(=O)NNC(=O)C2CC2)c1 | inconclusive: 4.25% | – | –
